In PubChem BioAssay AID1347076 (National Center for Advancing Translational Sciences (NCATS), 2019):
Hit rate of the full screen: of about 400,000 compounds, about 13,000 (3.2%) were called active. The inconclusive results got no clear call from the source; some entries with a clear call stand among them for comparison. Calls follow the shape of the dose curve; as a rule, active = well fitted cell-killing curve with a large enough effect; inconclusive = small, poorly fitted or top-dose-only effect, or effect the other way; inactive = flat fitted curve, though single readings scatter. A potency beside an inconclusive call is a rough fit, not a confirmed value.

Assay: qHTS assay for MDR1-selective chemotherapeutics: Primary screen using the drug-selected MDR subline cells KB-V1; also: nearly all actives have a fitted effect of over 60% in size
Conditions: KB-V1 MDR cells viability, CellTiter-Glo, 72 h; activity change, negative = cytotoxicity: at 46.1 µM (top of the series)
Summary of the method: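 Cytotoxicity via CellTiter-Glo luminescence after 72 h compound exposure at 37 degrees C. Cells: drug-selected KB-V1 line, DMEM phenol-red free plus 10% FBS. Compounds tested at multiple concentrations; normalized data fitted to concentration-effect curves.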
% is scaled to controls: 0 for no effect and ±100 for the full control effect; potency is read from the fitted curve at half-maximal effect.

Row | SMILES | Potency | activity change, negative = cytotoxicity
1 | CCN(CC)C(=O)N1CCN(Cc2ccc3c(c2)OCO3)CC1 | inconclusive: 29.1 µM [cytotoxic, single point] | –
2 | CN(C)S(=O)(=O)c1cc(C(=O)NCCCn2ccc3ccccc32)ccc1Cl | – | inconclusive: -35.9% [cytotoxic]
3 | CCOC(=O)c1ccc(NS(=O)(=O)c2ccc3[nH]c4c(c3c2)CCCCC4)cc1 | inconclusive: 16.4 µM [cytotoxic, single point] | –
4 | CCN(CC)S(=O)(=O)c1ccc2oc(C(=O)NC3CC3)c(C)c2c1 | inconclusive: 16.4 µM [cytotoxic, partial curve, poor fit] | –
5 | CCc1nn(CC(=O)N2CCN(c3cccc(C(F)(F)F)c3)CC2)c(=O)c2cccn12 | inactive | –
6 | CC(=O)N1CCc2cc(S(=O)(=O)NC(Cc3ccccc3)C(=O)Nc3ccc(Cl)cc3)ccc21 (centres undefined) | – | inconclusive: -6.46%
7 | O=C(c1cc(-c2ccc(F)cc2)no1)N1CCN(Cc2ccc3c(c2)OCO3)CC1 | inconclusive: 23.1 µM [cytotoxic, single point] | –
8 | COc1ccc(C2CC(c3c(O)cc(C)oc3=O)=NCCS2)c(OC)c1 (centres undefined) | active: 0.366 µM | –
9 | Cc1ccc(N(C(=O)CCl)C(C(=O)NC2CCCCC2)c2cccnc2)cc1C (centres undefined) | active: 3.66 µM | –
10 | CSc1ncc(Cl)c(C(=O)Nc2cccc(C)c2)n1 | inconclusive: 29.1 µM [cytotoxic, single point] | –
11 | CCOC(=O)C1(Cc2cccc(F)c2)CCN(C2CCOCC2)CC1 | inconclusive: 23.1 µM [cytotoxic, single point] | –
12 | CCCc1cc(NCCCCO)n2c(nc3ccccc32)c1C#N | active: 23.1 µM | –
13 | COC(=O)c1sccc1NC(=O)Nc1ccccc1C | inconclusive: 29.1 µM [rising, single point] | –
14 | c1ccc(-c2ccc(-c3ccncn3)cc2)cc1 | inconclusive: 29.1 µM [cytotoxic, partial curve, poor fit] | –
15 | Cc1ccc(S/C(=N\S(=O)(=O)c2ccc(Cl)cc2)c2ccccc2)cc1 | inconclusive: 29.1 µM [cytotoxic, single point] | –
16 | COCCCNC(=O)C[C@H]1C[C@H](C(=O)N2CCCCC2)[C@@]2(C)c3[nH]c4cc(-c5ccco5)ccc4c3CCN2C1=O | inactive | –
17 | CCOC(=O)c1cnc(SCc2ccccc2)nc1N | inconclusive: 25.9 µM [cytotoxic, partial curve, poor fit] | –
18 | O=C(NC1CCCC1)C1CCN(C(=O)c2ccc(-c3ccccc3)cc2)CC1 | inconclusive: 20.6 µM [cytotoxic, partial curve] | –
19 | Cc1ccc(S(=O)(=O)N2CCN(CC(O)COc3ccccc3)CC2)cc1 (centres undefined) | inconclusive: 14.6 µM [cytotoxic, partial curve] | –
20 | COc1ccc(C)cc1NC(=O)CSc1nc(=O)n(Cc2ccccn2)c2c1CCC2 | inactive | –
21 | C[C@@H]1CN([C@@H](C)CO)C(=O)CCCn2nncc2CO[C@H]1CN(C)C(=O)OCc1ccccc1 | – | inconclusive: -36.9% [cytotoxic]
22 | N#Cc1ccc(S(=O)(=O)NCC(=O)OCC(=O)N2CCCC2=O)cc1 | inconclusive: 29.1 µM [rising, single point] | –
23 | CC(C)COP(=O)(OCC(C)C)C(O)c1ccc(N(C)C)cc1 (centres undefined) | – | inconclusive: -39% [cytotoxic]

One compound at a time, from the list above.
N#Cc1ccc(S(=O)(=O)NCC(=O)OCC(=O)N2CCCC2=O)cc1 in the list: Potency: inconclusive: 29.1 µM [rising, single point]
CSc1ncc(Cl)c(C(=O)Nc2cccc(C)c2)n1 in the list: Potency: inconclusive: 29.1 µM [cytotoxic, single point]
CCOC(=O)c1cnc(SCc2ccccc2)nc1N in the list: Potency: inconclusive: 25.9 µM [cytotoxic, partial curve, poor fit]
C[C@@H]1CN([C@@H](C)CO)C(=O)CCCn2nncc2CO[C@H]1CN(C)C(=O)OCc1ccccc1 in the list: activity change, negative = cytotoxicity: inconclusive: -36.9% [cytotoxic]

Additional structures

Row | SMILES | Potency | activity change, negative = cytotoxicity
24 | CCN1C(=O)C(Cc2nc3ccccc3c(=O)n2-c2ccccc2)c2cc(Br)ccc21 (centres undefined) | inconclusive: 29.1 µM [cytotoxic, single point] | –
25 | CC(C)OC(=O)n1c(=S)oc2ccccc21 | inactive | –
26 | NC1=NC(=O)C(Cc2cccc(Cl)c2Cl)S1 (centres undefined) | active: 18.4 µM | –
27 | Fc1ccc(F)c(C2=NNC(=Nc3ccccc3F)SC2)c1 | inconclusive: 29.1 µM [cytotoxic, single point] | –
28 | Cc1cccc(C)c1NC(=O)CN1C(=O)c2cccc3cccc1c23 | inactive | –
29 | O=C(Cc1n[nH]c(=O)c2ccccc12)N1CCN(c2ccc(F)cc2)CC1 | inconclusive: 25.9 µM [cytotoxic, single point] | –
30 | Cc1cc(C(F)(F)F)nc(CCNC(=O)C2CCC(=O)N(Cc3cccc(F)c3)C2)n1 (centres undefined) | inconclusive: 29.1 µM [rising, single point] | –
31 | COc1ccc(/C=C(\C#N)C(=O)C(C)(C)n2cncn2)cc1 | inconclusive: 29.1 µM [rising, single point] | –
32 | COCCNC(=O)C(c1cccs1)N(C(=O)Cn1nnc2ccccc21)c1ccccc1 (centres undefined) | inactive | –
33 | N#Cc1ccc2ccn(CC(=O)NCc3ccccc3)c2c1 | inactive | –
34 | Cn1c(=O)c2sccc2n(Cc2cccc(Br)c2)c1=O | inconclusive: 2.91 µM [cytotoxic, partial curve, poor fit] | –
35 | COCCN(C(=O)COC(=O)CCCOc1ccc(OC)cc1)c1c(N)n(Cc2ccccc2)c(=O)[nH]c1=O | inactive | –
36 | O=C(Nc1nc(-c2ccccn2)cs1)c1ccc(Cl)s1 | inconclusive: 0.58 µM [cytotoxic, full curve, poor fit] | –
37 | CCc1cccc(OCC(=O)Nc2ccccc2N2CCCC2)c1 | inconclusive: 16.4 µM [cytotoxic, partial curve] | –
38 | O=C(Cc1ccc([N+](=O)[O-])cc1)N/N=C/c1ccc([N+](=O)[O-])o1 | inconclusive: 18.4 µM [cytotoxic, single point] | –
39 | Nc1nc(N)nc(-c2cccc(Cl)c2Cl)n1 | inconclusive: 29.1 µM [rising, single point] | –
40 | COc1ccc([C@H]2N[C@]3(CCCN(Cc4ccc(C)cc4)C3=O)[C@H]3C(=O)N(Cc4ccccc4)C(=O)[C@@H]23)cc1 | inconclusive: 0.92 µM [cytotoxic, partial curve] | –
41 | COc1ccc(-c2ccccc2)cc1NC(=O)C1(C)CCN1C(=O)C(C)C (centres undefined) | inactive | –
42 | S=C(NCc1cccnc1)Nc1ccc(Cl)c(Cl)c1 | inconclusive: 18.4 µM [cytotoxic, single point] | –
43 | CC(CCc1ccccc1)NC(=O)c1cc2sccc2n1C (centres undefined) | inconclusive: 10.3 µM [cytotoxic, partial curve, poor fit] | –
44 | Cc1ccc(S(=O)(=O)NNC(=O)c2c(O)c3ccccc3[nH]c2=O)cc1 | active: 2.59 µM | –
45 | Cc1ccc(Nc2ccc(C(=O)NCCc3ccccc3)cn2)cc1 | inconclusive: 29.1 µM [cytotoxic, single point] | –
46 | O=C1OCCC1=COCCCCOC=C1CCOC1=O | inactive | –

Row | SMILES | Potency | activity change, negative = cytotoxicity
47 | CCn1c(/C=C/c2cccc([N+](=O)[O-])c2)nc2ccccc2c1=O | active: 20.6 µM | –
48 | O=C(Nc1c(C(=O)N2CCN(c3ccccc3F)CC2)oc2ccccc12)c1ccccc1F | inconclusive: 0.58 µM [cytotoxic, full curve, poor fit] | –
49 | COC(=O)CCCCC1SCC(NC(=O)c2ccccc2)C1OC(C)=O (centres undefined) | inconclusive: 29.1 µM [rising, single point] | –
50 | O=C(OCC(=O)N1CCCc2ccccc21)c1ccc(C(F)(F)F)cc1 | inconclusive: 16.4 µM [rising, partial curve, poor fit] | –
51 | COc1ccc(C(=O)/C=C/Nc2ccccn2)cc1 | inconclusive: 20.6 µM [cytotoxic, single point] | –
52 | CCn1cc(C(=O)NCc2ccc(C)cc2)c(=O)c2cc(S(=O)(=O)N3CCc4ccccc4C3)ccc21 | inconclusive: 29.1 µM [rising, partial curve, poor fit] | –
53 | CCC12CN3CC(CC)(CN(C1)C3c1cc(Br)ccc1OC)C2=O (centres undefined) | inactive | –
54 | CN1CCN(C(=O)c2ccccc2NS(=O)(=O)c2ccc(F)cc2)CC1 | inactive | –
55 | O=C1NC(=O)C(=Cc2ccccc2[N+](=O)[O-])S1 | inconclusive: 23.1 µM [cytotoxic, single point] | –
56 | COC(c1ccccc1)c1nnc(CCC(=O)NCCC(C)C)o1 (centres undefined) | inactive | –
57 | CC(=O)N1CCOc2cc(S(=O)(=O)N(C)Cc3ccccc3)c(Cl)cc21 | inconclusive: 4.61 µM [cytotoxic, full curve] | –
58 | C[C@@H]1CN([C@H](C)CO)C(=O)Cc2cc(NS(=O)(=O)c3ccc(F)cc3)ccc2O[C@H]1CN(C)Cc1ccc(C(=O)O)cc1 | inconclusive: 29.1 µM [rising, single point] | –
59 | COc1ccc(CC(=O)N2CCC(n3nccc3NC(=O)C3CC3)CC2)cc1 | inconclusive: 29.1 µM [rising, single point] | –
60 | Cc1ccc(-c2nn(-c3ccccc3)cc2C=C2C(=O)CC(C)(C)CC2=O)cc1 | active: 18.4 µM | –
61 | O=C(Cn1c(-c2ccc(Cl)cc2)noc1=O)N1CCN(c2ccccc2F)CC1 | active: 9.2 µM | –
62 | COc1ccc(C(C)(O)c2nc(-c3ccc(F)c(Cl)c3)cs2)cc1 (centres undefined) | inactive | –
63 | Cc1ccc(Nc2nnc(SCC(=O)Nc3cc(C(=O)O)ccc3C)s2)c(C)c1 | inactive | –
64 | Cc1nonc1NC(=O)c1ccc(Cl)c(S(=O)(=O)N2CCCCC2)c1 | inconclusive: 29.1 µM [cytotoxic, single point] | –
65 | COc1ccccc1N(Cc1ccccc1)S(=O)(=O)c1cccc(C(=O)Nc2ccc(C)cn2)c1 | inconclusive: 7.31 µM [cytotoxic, partial curve, poor fit] | –
66 | Cc1ccc2cc(COC(=O)C3CCCO3)c(=O)[nH]c2c1 (centres undefined) | active: 11.6 µM | –
67 | Cc1ccc(Cn2c(CNC(=O)c3cccc(C)c3)nc3ccccc32)cc1 | inactive | –
68 | O=C1CC(=O)Nc2cc(S(=O)(=O)NCc3cccs3)ccc2N1 | inconclusive: 18.4 µM [rising, single point] | –
69 | COc1ccccc1NC(=O)c1c(N=Cc2c(O)ccc3ccccc23)cnn1C | inconclusive: 23.1 µM [cytotoxic, single point] | –
